# Test results as given in PubChem BioAssay AID1471 (National Center for Advancing Translational Sciences (NCATS), 2008).
# Hit rate of the full screen: of about 230,000 compounds, about 310 (0.13%) were called active. The inconclusive results got no clear call from the source; some entries with a clear call stand among them for comparison. Calls follow the shape of the dose curve; as a rule, active = well fitted activation curve with a large enough effect; inconclusive = small, poorly fitted or top-dose-only effect; inactive = no such curve, though single readings can be large or run the other way. Potencies beside an inconclusive call are fits to weak or partial responses and may not hold up.
# Experiment: qHTS Multiplex Assay to Identify Dual Action Probes in a Cell Model of Huntington: Cytoprotection (ATP); also: nearly all actives have a fitted effect of over 45% in size;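 as to cytoprotection (ATP increase): toxic huntingtin expression switched on by the ecdysone agonist tebufenozide; % of control where 0% means no effect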
# Settings: PC12 HTT-Q103 induced, ATP luminescence, 40 h; cytoprotection (ATP increase): at 56.4 µM (top of the series) unless noted
# Outline: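 Compounds added alongside 100 nM tebufenozide, which induces toxic Q103 huntingtin exon 1-GFP in stable PC12 cells; surviving cells quantified by luminescent ATP measurement. Medium: phenol red-free DMEM, 5% equine and 5% calf serum.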
# Potency is read from the fitted curve at half-maximal effect.
SMILES,Potency,cytoprotection (ATP increase)
Cc1cc(O)c(C=O)c2c1C(=O)Oc1c(C)c(O)c3c(c1O2)C(O)OC3=O (stereo not drawn),"inconclusive: 224 nM [activator, partial curve]",–
CCC(=O)NC(c1ccc(OC)c(OC)c1)c1cc(Cl)c2cccnc2c1O (stereo not drawn),–,inactive: -75.8% [at 10 µM]
c1ccc2c(c1)OCC(c1nn3c(Cn4nnc5ccccc54)nnc3s1)O2 (stereo not drawn),–,inactive: -4.5% [at 10 µM]
COc1cc(C(=O)NNC2=CC(=O)CC(C)(C)C2)cc(OC)c1OC,"inconclusive: 3980 nM [activator, single point]",–
CC(C)C[C@@H](CC(=O)N[C@@H](CCC(=O)O)CC(=O)O)NC(=O)[C@@H]1CCCC[C@H]1NC(=O)C[C@H](CCCN)NC(=O)C[C@H](Cc1ccccc1)NC(=O)[C@@H]1CCCC[C@H]1N,–,inactive: -5.72% [at 1.9 µM]
CCCc1c(C(=O)Nc2ccc(C(F)(F)F)cc2)cnn1-c1ccccc1,–,inactive: -3.29% [at 10 µM]
S=C(Nc1ccc(Br)cc1)N1CCN(C2CCCCC2)CC1,"inconclusive: 501 nM [activator, full curve, poor fit]",–
O=C(NC(NC1CCS(=O)(=O)C1)C(=O)c1cccs1)c1ccccc1 (stereo not drawn),–,inactive: 9.36% [at 10 µM]
COc1ccc(-c2cc(=O)n(-c3ccc([N+](=O)[O-])cc3)[nH]2)cc1,"inconclusive: 5620 nM [activator, partial curve]",–
C[C@](O)(C(=O)Nc1ccc(S(=O)(=O)c2ccccc2)cc1)C(F)(F)F,"inconclusive: 100 nM [activator, full curve, poor fit]",–
CC1CCCC(NC(=O)CCCn2c(=S)[nH]c3ccccc3c2=O)C1C (stereo not drawn),"inconclusive: 100 nM [activator, full curve]",–
OCCCn1c(-c2ccccc2)nc(=S)c2c1CCCC2,active: 2820 nM,–
CC1(C)C(=O)C2(C(=O)NCc3ccccc3)CCC1C2 (stereo not drawn),–,inactive: 16%
CCc1cc2c(nc1CC)CCN(CC/C(C)=N/OCC[C@@H]1C=C[C@H](OC(C)=O)[C@H](COC(C)=O)O1)C2,–,inactive: 1.13% [at 10 µM]
CCOC(=O)N1CCN(C(=O)c2ccc(OCC)cc2)CC1,–,inactive: 11.5% [at 10 µM]
COc1ccc(CCNC(=O)C2CC(c3ccc([N+](=O)[O-])cc3)=NO2)cc1 (stereo not drawn),"inconclusive: 3980 nM [activator, full curve, poor fit]",–
CCC(CC)NC(=O)CC(c1ccccc1)c1ccccc1,"inconclusive: 7.9 nM [activator, full curve, poor fit]",–
Cc1cc(C)[n+]2[nH]c(N)c(N=Nc3ccccc3)c2n1,–,inactive: -15.2% [at 10 µM]
CN(C)c1ccc(NS(=O)(=O)c2cc(Cl)ccc2Cl)cc1,active: 794 nM,–
CCOC(C)=O,"inconclusive: 562 nM [activator, partial curve]",–
CC(C)N1CCC(N2CCN(C3CCCC3)CC2CCO)CC1 (stereo not drawn),–,inactive: 9.7% [at 10 µM]
COc1ccc(OC)c(S(=O)(=O)N(C(C)=O)c2ccc3oc(=O)sc3c2)c1,"inconclusive: 12600 nM [activator, partial curve, poor fit]",–

# Whole records as entered above. Order of values: Potency | cytoprotection (ATP increase)
# CCOC(C)=O as listed: inconclusive: 562 nM [activator, partial curve] | –
# CN(C)c1ccc(NS(=O)(=O)c2cc(Cl)ccc2Cl)cc1 as listed: active: 794 nM | –
# CC(C)N1CCC(N2CCN(C3CCCC3)CC2CCO)CC1 (stereo not drawn) as listed: – | inactive: 9.7% [at 10 µM]

# The list goes on:

SMILES,Potency,cytoprotection (ATP increase)
CC(NC(=O)c1cn(C)c2ccc(S(=O)(=O)N3CCCC3)cc2c1=O)c1ccc2c(c1)OCCO2 (stereo not drawn),"inconclusive: 5620 nM [activator, single point]",–
Cc1ccc(C2CC(=O)Oc3ccc(C(C)(C)C)cc32)cc1 (stereo not drawn),active: 28200 nM,–
Cc1ccc2cc(C(c3nnnn3C3CCCC3)N3CCN(c4ccccc4)CC3)c(=O)[nH]c2c1 (stereo not drawn),–,inactive: -32.1% [at 10 µM]
O=C(c1ccccc1)C(O)c1ccccc1 (stereo not drawn),"inconclusive: 2000 nM [activator, partial curve]",–
Cc1cc(CNC(=O)C(C)n2nc(C)c([N+](=O)[O-])c2C)c2ccccc2n1 (stereo not drawn),"inconclusive: 891 nM [activator, single point]",–
Cc1ccc(NC(=O)CCC(=O)c2cccs2)cc1,–,inactive: 4.7%
COCCCNC(=S)N/N=C/c1ccc(O)cc1O,"inconclusive: 1000 nM [activator, single point]",–
CN(C)Cc1ccccc1-c1nccc(NCc2cccs2)n1,–,inactive: 8.72%
COC(=O)C1=C(C)NC2=C(C(=O)c3ccccc32)C1c1cccc(OC)c1 (stereo not drawn),–,inactive: 8.08% [at 10 µM]
Cc1nccn1CCC(=O)Nc1ccc(Cl)cc1,"inconclusive: 35500 nM [activator, single point]",–
Cc1ccc(S(=O)(=O)c2c(N)n(CCC(C)C)c3nc4ccccc4nc23)cc1,"inconclusive: 11200 nM [activator, partial curve, poor fit]",–
CC1=C(C#N)C(/C=N/OCc2ccc(Cl)cc2)CC(=O)N1 (stereo not drawn),"inconclusive: 10 nM [activator, full curve, poor fit]",–
CCCCn1c(=O)c(C(=O)N/N=C/c2ccc(F)cc2)c(O)c2ccccc21,"inconclusive: 5620 nM [activator, single point]",–
CC/C(=N/NC(=O)CNc1ccc(Cl)cc1C)c1ccccc1,"inconclusive: 1260 nM [activator, partial curve]",–
O=C(CSc1nc2ccccc2[nH]1)c1ccco1,–,inactive: -23.2%
CC12CC3(O)OC(O1)C1(COC(=O)c4ccccc4)[C@@H]3CC21O[C@@H]1O[C@H](CO)[C@@H](O)[C@H](O)[C@H]1O,"inconclusive: 708 nM [activator, full curve, poor fit]",–
O=c1[nH]c(=O)n([C@@H]2C[C@H](O)[C@H](CO)O2)cc1I,"inconclusive: 1120 nM [activator, single point]",–
O=C(Nc1ccccc1N1CCCCC1)c1ccc(Cl)c([N+](=O)[O-])c1,"inconclusive: 35500 nM [activator, single point]",–
COc1ccc(CNC(=O)c2c(F)c(F)c(F)c(F)c2F)cc1,–,inactive: 2.14% [at 10 µM]
COc1cc(OC)cc(-c2sc3ccccc3c(=O)c2I)c1,"inconclusive: 1780 nM [activator, partial curve]",–
Nc1nc(N2CCCCC2)c(C=O)c(N2CCCCC2)n1,"inconclusive: 4470 nM [activator, full curve, poor fit]",–
